Measurements published in PubChem BioAssay AID1347072 (National Center for Advancing Translational Sciences (NCATS), 2019).
Out of some 44,000 compounds screened, fewer than 10 were called active. The inconclusive results got no clear call from the source; some entries with a clear call stand among them for comparison. Calls follow the shape of the dose curve; as a rule, active = well fitted curve in the direction sought with a large enough effect; inconclusive = small, poorly fitted or top-dose-only effect, or another doubt; inactive = no such curve, though single readings can be large or run the other way. Potencies of inconclusive entries are doubtful fits and often do not repeat.

By UniProt entry, the sequences of proteins in these tests, tags left out. Where a name states a change or a piece, a line headed by the entry shows the natural chain unless it says otherwise.
UniProt P51570: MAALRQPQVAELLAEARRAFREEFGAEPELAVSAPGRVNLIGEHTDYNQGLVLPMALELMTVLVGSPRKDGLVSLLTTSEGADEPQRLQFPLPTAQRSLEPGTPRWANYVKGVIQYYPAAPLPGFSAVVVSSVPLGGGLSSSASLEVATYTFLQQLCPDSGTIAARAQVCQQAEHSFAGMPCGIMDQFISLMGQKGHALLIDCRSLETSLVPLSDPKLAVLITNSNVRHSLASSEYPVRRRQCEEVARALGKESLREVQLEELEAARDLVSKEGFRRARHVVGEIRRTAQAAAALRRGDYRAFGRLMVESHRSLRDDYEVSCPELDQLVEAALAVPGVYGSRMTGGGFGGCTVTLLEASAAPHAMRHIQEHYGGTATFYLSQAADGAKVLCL

biological target: Galactokinase (Homo sapiens) (UniProt P51570); assay: qHTS Assay for Inhibitors of Human Galactokinase (GALK): NCGC Sytravon Library Screen; conditions: recombinant GALK, Kinase-Glo ATP luminescence, 1 h; series mostly up to 57.5 µM
Summary of the method: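 Human GALK (5 nM) was incubated with 35 uM ATP and 100 uM galactose in 20 mM HEPES pH 8.0 with MgCl2, NaCl, DTT and BSA for 1 h at room temperature. Remaining ATP was measured by Kinase-Glo Plus luminescence.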

Potency, inconclusive:
CCC(Nc1ccc(-c2nc(-c3ccccn3)no2)cc1[N+](=O)[O-])c1ccccc1 (stereo not drawn) 0.251 µM [inhibitor, full curve, poor fit]
Cc1ccc(N(Cc2cccs2)C(=O)c2ccc(OC(C)C)cc2)cc1 4.47 µM [inhibitor, full curve, poor fit]
CC1CCN(C(=O)Cn2cc(SCC(=O)NCc3ccccc3)c3ccccc32)CC1 1.78 µM [inhibitor, partial curve, poor fit]
CCOc1ccc(C(c2c(O)cc(C)n(Cc3ccco3)c2=O)N2CCN(C)CC2)cc1 (stereo not drawn) 44.7 µM [inhibitor, partial curve, poor fit]
CC(=O)Nc1ccc(NC(=O)c2ccc3c(c2)CCN3S(=O)(=O)c2ccc(C)cc2)cc1 39.8 µM [inhibitor, partial curve, poor fit]
COc1cc(-c2cc(OC)c3c(C)oc(C)c3c(=O)c2)ccc1OC(=O)c1cccc(C)c1 0.158 µM [inhibitor, full curve, poor fit]
CCc1ccc(NC(=O)C2CCCN(S(=O)(=O)c3ccc4[nH]c(=O)ccc4c3)C2)cc1 (stereo not drawn) 1.26 µM [inhibitor, partial curve, poor fit]
Cc1ccc(CN2CCC(CNC(=O)c3cnn(-c4ccc(C)cc4)c3C3CCN(C(=O)OC(C)(C)C)CC3)CC2)cc1 0.355 µM [inhibitor, full curve, poor fit]
CCCCc1ccc(NC(=O)c2ccc3c(c2)CCN3S(=O)(=O)c2ccccc2)cc1 39.8 µM [inhibitor, partial curve, poor fit]
CCCNC(=O)CSc1cn(CC(=O)N2CCCCCC2)c2ccccc12 1.12 µM [inhibitor, full curve, poor fit]
CCOc1ccc(-c2nnc(SCC(=O)Nc3cccc(Cl)c3C)o2)cc1 0.141 µM [inhibitor, full curve]
CNC(=O)c1ccc(NC(=O)COc2ccc(-c3nn(C)c(=O)c4ccccc34)cc2)cc1 39.8 µM [inhibitor, single point]
CCOc1ccc(CCNC(=O)c2ccc(CS(=O)Cc3ccc(Cl)cc3)o2)cc1 (stereo not drawn) 1.41 µM [inhibitor, full curve, poor fit]
Cc1cccc(N2CCN(C(=O)CCn3c(=O)c4cccn4c4cccnc43)CC2)c1C 0.398 µM [inhibitor, full curve, poor fit]
COc1ccc2c(c1)c1c(c(=O)n(-c3ccccc3C)c(=O)n1Cc1c(F)cccc1Cl)n2C 1.12 µM [inhibitor, full curve, poor fit]
COc1cc(OC)c(N(C)C(=O)c2sc3nc4n(c(=O)c3c2C)CCCC4)cc1Cl 14.1 µM [inhibitor, partial curve, poor fit]
Cc1ccc(-c2cc(NC(=O)COc3ccc(Cl)cc3C)on2)cc1 39.8 µM [inhibitor, single point]
O=C1C(Nc2ccccc2)=CC(c2ccc(Br)cc2)N1c1ccccc1 (stereo not drawn) 1.41 µM [inhibitor, full curve, poor fit]
CCCCn1c(=O)c2oc3ccccc3c2n(CC(=O)Nc2cccc(Cl)c2C)c1=O 3.55 µM [inhibitor, partial curve, poor fit]
COc1ccc(S(=O)(=O)c2c(C)c(NS(=O)(=O)c3ccccc3)cc(C)c2O)cc1 14.1 µM [inhibitor, partial curve, poor fit]
CCc1ccc(NC(=O)c2ccc(NS(=O)(=O)c3c(C)noc3C)cc2)cc1 39.8 µM [inhibitor, partial curve, poor fit]
COc1ccccc1CNC(=O)CCc1c(C)c2cc3c(C)coc3cc2oc1=O 39.8 µM [inhibitor, partial curve, poor fit]
COc1cc(C(=O)Nc2ccccc2-c2nc(-c3ccccc3)no2)cc(OC)c1OC 0.141 µM [inhibitor, full curve]
CCOC(=O)C1CCCN(c2nc3c(S(=O)(=O)c4ccc(CC)cc4)nnn3c3ccsc23)C1 (stereo not drawn) 8.91 µM [inhibitor, partial curve, poor fit]
COc1ccc(Cc2nc3ccc(C(=O)NCc4ccccc4C)cc3o2)cc1 3.98 µM [inhibitor, partial curve, poor fit]
CC(=O)Nc1ccc(NC(=O)C2CCN(c3cnccn3)CC2)cc1 35.5 µM [inhibitor, partial curve, poor fit]
COc1ccc(S(=O)(=O)N(CC(=O)Nc2ccccc2Br)Cc2ccccc2)cc1 44.7 µM [inhibitor, partial curve, poor fit]

Retrieved one by one from the entries so far:
Potency, inconclusive:
CC1CCN(C(=O)Cn2cc(SCC(=O)NCc3ccccc3)c3ccccc32)CC1 1.78 µM [inhibitor, partial curve, poor fit]
CCOc1ccc(-c2nnc(SCC(=O)Nc3cccc(Cl)c3C)o2)cc1 0.141 µM [inhibitor, full curve]

Following part:

Potency, inactive:
COc1ccc2c(CNCCc3ccco3)c(C(=O)O)n(Cc3ccc(C)cc3)c2c1
COc1ccc(OC)c(-c2cc(C(=O)Nc3c(C)nn(Cc4ccc(C)cc4)c3C)no2)c1
O=C(CC(c1cccs1)N1Cc2ccccc2C1=O)Nc1cccc(F)c1 (stereo not drawn)
COc1ccccc1NC(=O)c1sc2nc(N3CCOCC3)c3c(c2c1N)CC(C)(C)OC3
CC1=C(C(=O)OCC2CCCCC2)C(c2cccc(Cl)c2Cl)CC(=O)N1 (stereo not drawn)
O=C(c1ccccc1F)N1c2nc(-c3ccco3)nn2C2(CCCCC2)[C@@H]2CCCC[C@@H]21
Cc1c(Cl)cccc1NS(=O)(=O)c1ccc(NS(=O)(=O)c2ccc3c(c2)OCCO3)cc1
COc1cccc(-c2nnc(SCC(=O)N(C)C3CCCCC3)o2)c1
Cc1nn(C)c2c1c(C(F)(F)F)cc(=O)n2C(C)C(=O)Nc1ccccc1F (stereo not drawn)
CCCC(O)c1nc2ccccc2n1CCCOc1ccc(Cl)cc1 (stereo not drawn)
Cc1ccc(OCC(O)Cn2c(=N)n(CCN3CCCCC3)c3ccccc32)cc1 (stereo not drawn)
